Assay: Transport experiment across Caco-2 cell monolayer (Papp)
Format: in vitro ADME
Details: human, standard compounds, validation of the monolayer model
Procedure: For cells differentiation to form a confluent monolayer, Caco-2 cells were seeded into the inserts of the 12-well Transwell plates at the density of 1.0×10^5 cells/cm^2. The culture medium was replaced on every other day in the first week, and then at daily intervals for the apical (AP) side and 2 days intervals for the basal (BL) side until the transport experiment was performed 21 days after seeding. The AP and BL sides contained 0.5 and 1.5 mL of culture medium, respectively. […] The cell inserts were considered as qualified only if the resistance reached above 600 Ω cm^2.
On day 21, the transport experiment was initiated by removal of the culture medium from AP and BL sides. The Caco-2 monolayers were rinsed twice with pre-warmed Hanks balanced salt solution (HBSS) and were incubated with the same solution at 37°C for 30 min. […]
The apparent permeability coefficients (Papp) were determined in this study by HPLC quantification of the compounds in the receiver chamber after transport across the Caco-2 monolayer. […] The percentage transported (%) was calculated using the formula % transported = QB/(CS×VD)×100, wherein QB was the quantity of compound in the receiver compartment (μmol); CS was the concentration of test compound in the donor compartment (μmol/mL); VD was the liquid volume of the donor compartment (mL). […]

- Papp: 0.463 ×10⁻⁶ cm/s
Compound: CC(C)NCC(O)COc1ccc(CC(N)=O)cc1 (stereo not shown) [atenolol, reference compound]

Source: paper PMC4366261, “Characterization of the Intestinal Absorption of Seven Flavonoids from the Flowers of Trollius chinensis Using the Caco-2 Cell Monolayer Model” (PLoS ONE, 2015)
